Results are given in words; binding and its absence hold for the method and conditions named. Binding seen in cells or lysates may run through a third protein. Some binding calls cover weakened binding; strength is not graded here.
Target: T1, SmBiT-PXR LBD (residues 139-434) (human) (UniProt O75469)
T1 sequence: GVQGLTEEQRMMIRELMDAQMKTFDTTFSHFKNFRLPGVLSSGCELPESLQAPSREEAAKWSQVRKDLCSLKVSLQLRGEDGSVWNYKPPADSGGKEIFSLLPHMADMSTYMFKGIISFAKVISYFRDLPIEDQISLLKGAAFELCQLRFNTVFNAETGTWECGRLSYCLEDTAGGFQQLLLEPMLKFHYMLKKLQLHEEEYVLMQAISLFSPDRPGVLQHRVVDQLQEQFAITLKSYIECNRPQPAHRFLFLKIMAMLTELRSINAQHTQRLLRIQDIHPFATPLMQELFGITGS
Assay: split reporter; NanoBiT in HepG2 cells co-transfected with SmBiT-PXR LBD and LgBiT-SRC-1; 100 nM T0901317 or 5 uM other compound for 30 min at RT; Nano-Glo Live Cell Assay System

Protein sequences, listed by entry. Tags and fused reporters are not part of them. Residues count along the entry.
UniProt Q15788, residues 621-765: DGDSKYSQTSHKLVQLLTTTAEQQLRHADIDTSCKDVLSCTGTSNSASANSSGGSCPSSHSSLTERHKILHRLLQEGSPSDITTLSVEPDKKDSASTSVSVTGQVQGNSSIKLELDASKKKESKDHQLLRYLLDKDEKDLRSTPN

With “LgBiT-tagged SRC-1 nuclear receptor interaction domain (amino acids 621-765) (from UniProt Q15788 621-765) (domain or fragment)” the binding was “binds”.

From paper PMC10899790, “A bromodomain-independent mechanism of gene regulation by the BET inhibitor JQ1: direct activation of nuclear receptor PXR” (Nucleic Acids Research, 2023)
